Measurements reported in PubChem BioAssay AID652272 (Drosophila RNAi Screening Center, 2013).
Aim: 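Genome-wide knock-down search for components of Hedgehog signalling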 (primary screen). System: Drosophila clone 8 (Cl8) cells. Reagents: long dsRNA against Drosophila genes. Measurement: 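Firefly light from a Hedgehog-responsive ptc promoter reporter and Renilla reference light, both read on a plate reader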. Scale: firefly Hh reporter signal: higher = more ptc reporter light; Renilla reference signal: higher = more Renilla control light. Active means: 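Hit when the z-score averaged over two replicates is under -2 or over +3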. Meaning of the calls: active = hit: reporter lowered or raised; inactive = not a hit.
The screen tested about 21,000 reagents; below is an unselected part of those with a known target gene and a result. Of all reagents, 503 (2.4%) got an active call. 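Raw plate light values, not normalised; calls rest on replicate z-scores that were not deposited; hits include reporter decreases as well as increases.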 Not given: the amount of reagent, the time to read-out.

The opening 2 records, ahead of the listing:
gene knocked down	DRSC id	firefly Hh reporter signal, replicate 1	firefly Hh reporter signal, replicate 2	firefly Hh reporter signal, replicate 3	Renilla reference signal, replicate 1	Renilla reference signal, replicate 2	Call
CG14160	DRSC10161	26038	42464	42993	4032	2541	inactive
bi	DRSC18742	1.36e5	3.02e5		4709	10059	inactive

The list itself, repeating the preview:
gene knocked down	DRSC id	firefly Hh reporter signal, replicate 1	firefly Hh reporter signal, replicate 2	firefly Hh reporter signal, replicate 3	Renilla reference signal, replicate 1	Renilla reference signal, replicate 2	Call
CG14160	DRSC10161	26038	42464	42993	4032	2541	inactive
bi	DRSC18742	1.36e5	3.02e5		4709	10059	inactive
koi	DRSC04980	80204	65744		1837	4584	inactive
koi	DRSC04991	1.04e5	64372		2626	4811	inactive
amon	DRSC13784	49084	2.03e5		11561	4188	inactive
amon	DRSC16900	1.03e5	4.76e5	1.25e5	3052	3474	inactive
CG32344	DRSC08578	79113	57313		5101	3142	inactive
CG30398	DRSC03891	1.65e5	2.20e5		3992	9371	inactive
CG3630	DRSC18499	1.26e5	78100		2901	2459	inactive
CG10195	DRSC02026	1.06e5	71980		2760	6883	inactive
XNP	DRSC15594	62214	1.07e5		1059	3101	inactive
CG5866	DRSC15900	58032	59909		1494	1360	inactive
klu	DRSC11357	60912	28304	36907	3696	3538	inactive
CG18233	DRSC10308	73463			5091	2264	inactive
CG31174	DRSC13518	61555	2.60e5		11840	6170	inactive
CG18530	DRSC15341	1.08e5	1.51e5		3094	4090	inactive
Zmynd10	DRSC09826	67683	33265	57584	3681	4597	inactive
CG13075	DRSC09958	1.43e5			8834	4028	inactive
CG3638	DRSC18533	72528	1.25e5		2700	5927	inactive
axed	DRSC08833	95293	2.29e5		2345	8851	inactive
axed	DRSC10982	57833	50716		4967	3308	inactive
Fer1	DRSC12507	87184	1.16e5		3801	3557	inactive
Fer1	DRSC12555	1.09e5	1.23e5		4144	3785	inactive
